Reference: paper PMC11387133
Results are given in words; binding and its absence hold for the method and conditions named. For part of these data: Binding seen in cells or lysates may run through a third protein. Some results given as binding are weak or reduced against the parent protein; the word gives no strength.

The chains behind the UniProt entries cited, without tags or fusion partners.
UniProt A0ABX6F2N8: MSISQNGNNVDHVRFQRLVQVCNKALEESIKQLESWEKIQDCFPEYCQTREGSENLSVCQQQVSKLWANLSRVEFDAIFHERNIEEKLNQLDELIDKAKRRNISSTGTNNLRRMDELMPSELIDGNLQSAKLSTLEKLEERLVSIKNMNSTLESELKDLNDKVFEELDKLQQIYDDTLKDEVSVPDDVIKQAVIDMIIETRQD
UniProt A0ABX6ES48: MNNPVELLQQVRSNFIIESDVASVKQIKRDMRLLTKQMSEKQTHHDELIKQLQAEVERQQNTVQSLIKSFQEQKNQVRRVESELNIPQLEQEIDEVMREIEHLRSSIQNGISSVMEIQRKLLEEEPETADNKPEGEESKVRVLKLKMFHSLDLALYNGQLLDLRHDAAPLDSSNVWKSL

Tests used:
[1] = target: Dsn1-6His-3M3DK (K. marxianus) (K. marxianus); assay: immunogold labelling of affinity-purified particles (negative stain EM); kinetochores purified via Dsn1-His-M3DK from strain SBY21752 (Ndc80-V5) or SBY18150 (no V5), incubated with α-V5 antibody on 10 nm gold, 30 min, room temperature
[2] = target: Dsn1-6His-3M3DK (K. marxianus) (K. marxianus); assay: co-IP; Dsn1-His-M3DK captured from lysate of benomyl-treated K. marxianus on α-M3DK Dynabeads (Buffer H, 150 mM KCl, 4 °C), eluted with 3xM3DK peptide; immunoblot of the eluate

Row | binding [1] | binding [2] | Substance
1 | binds | – | Ndc80-6xHis-3xV5 (K. marxianus) (from UniProt A0ABX6F1V2 1-676)
2 | – | binds | Nnf1 (K. marxianus) (from UniProt A0ABX6F2N8 1-203)
3 | – | binds | Spc24 (K. marxianus) (from UniProt A0ABX6ES48 1-179)
